## Results of single-concentration screens

The filed quantity is “Percent Effect” (%). The record does not define 0% and 100%; most values in the screen are far below 50% and negative numbers occur (in some assays of this library far below -100). This is an unselected part of the compounds tested.

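Assay of Toxoplasma gondii numbers, read through their beta-galactosidase reporter with a colour substrate. Concentration: 50 µM. The record gives no direction; the compounds picked for IC50 retests had high values, so higher reads as fewer parasites. Size under these conditions: about 18,000 compounds, about 170 of them at 50% or above in at least one test.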

{"smiles": "CC(=O)N(C)c1ccc(S(N)(=O)=O)cc1", "effect": -5.432}
{"smiles": "O[C@@H]1CCNC[C@@H]1O", "effect": -18.76}
{"smiles": "CC1(C)OC(=O)N(Cc2cc(=O)n3ccsc3n2)C1=O", "effect": -3.259}
{"smiles": "CCn1nnnc1NCc1sccc1C", "effect": -10.81}
{"smiles": "CC(C)C(=O)N1CCN(CCc2ccccn2)CC1", "effect": -1.569}
{"smiles": "CCN(C)C(C)C(=O)Nc1cccc(S(N)(=O)=O)c1", "stereo": "stereo unspecified", "effect": -1.519}
{"smiles": "O=C(NCC1(O)CCCc2ccccc21)c1csnn1", "stereo": "stereo unspecified", "effect": -7.159}
{"smiles": "CCN(CC)CC(=O)Nc1cc(C)nn1C", "effect": -3.15}
{"smiles": "C=C(Br)Cn1c(CO)nc2ccccc21", "effect": -20.35}
{"smiles": "CS(=O)(=O)c1cccc(C(=O)NCCCN)c1", "effect": -1.68}
{"smiles": "O=C(CNC(=O)c1ccc2c(c1)OCO2)NCC1CC1", "effect": 1.921}
{"smiles": "CCOc1ncccc1CN(C)C(=O)c1ccco1", "effect": -5.495}
{"smiles": "CCOC(=O)c1sc(N)c(C#N)c1CN1CCOCC1", "effect": -14.75}
{"smiles": "CC(NS(=O)(=O)N(C)C1CCCCC1)c1ccccn1", "stereo": "stereo unspecified", "effect": -28.23}
{"smiles": "CCn1nccc1[C@@H]1OCCC[C@H]1CN", "effect": -7.852}
{"smiles": "CC(C)Cn1[nH]ccc1=NC(=O)Cn1cnc(C#N)n1", "effect": -0.5301}
{"smiles": "Oc1ccc2c(c1)COC2", "effect": -1.752}
{"smiles": "CS(=O)(=O)C1CCCCN(C(=O)CC2CCSCC2)C1", "stereo": "stereo unspecified", "effect": -13.3}
{"smiles": "CSCC(C)(O)CNC(=O)c1cccc(N(C)C)c1", "stereo": "stereo unspecified", "effect": 14.71}
{"smiles": "COc1ccc(NC(=O)NC2CCS(=O)(=O)C2)cn1", "stereo": "stereo unspecified", "effect": -13.61}
{"smiles": "Nc1nnc(SCC(=O)OC2CCCCC2)[nH]1", "effect": 7.137}
{"smiles": "CC(C)C(=O)NCc1ccccc1CN(C)C", "effect": -4.217}
{"smiles": "CN(C(=O)Cc1ccc(Cl)cc1Cl)C1CCS(=O)(=O)C1", "stereo": "stereo unspecified", "effect": -0.04362}
{"smiles": "Cc1ccc(CN)nc1", "effect": 28.44}
{"smiles": "Cc1ccc(CNC2(C(N)=O)CC2)cc1", "effect": -7.149}
{"smiles": "COc1cccc(CCC(=O)NCCCN(C)C)c1", "effect": 14.17}
{"smiles": "CC(C)(C)C1CNCCO1", "stereo": "stereo unspecified", "effect": 3.982}
{"smiles": "CCNC(=O)C1CN(c2ccc(S(C)(=O)=O)cc2)C1", "effect": -4.953}
{"smiles": "Cc1cccn(CC(=O)NCc2cccs2)c1=O", "effect": 9.274}
{"smiles": "CC(O)CN1CCN(C(=O)CN(C)S(C)(=O)=O)CC1", "stereo": "stereo unspecified", "effect": 15.99}
{"smiles": "Nc1nnc(CO)s1", "effect": -6.946}
{"smiles": "Cc1cnn(CCNC(=O)CCS(=O)(=O)CC(C)C)c1", "effect": 4.667}
{"smiles": "CC(=O)Cc1ccn(C(C)C)n1", "effect": -14.04}
{"smiles": "CCc1nccn1CCNC(=O)[C@H]1CC[C@@H](O)CC1", "effect": 6.351}
{"smiles": "CCC(C)(C)NC(=O)C1CC(=O)N(CC(F)(F)F)C1", "stereo": "stereo unspecified", "effect": 1.474}

Some entries from above, unchanged:

Result for CCOC(=O)c1sc(N)c(C#N)c1CN1CCOCC1 was -14.75%.
Result for CCn1nnnc1NCc1sccc1C was -10.81%.
Result for C=C(Br)Cn1c(CO)nc2ccccc21 was -20.35%.
Result for CS(=O)(=O)c1cccc(C(=O)NCCCN)c1 was -1.68%.

Source: ChEMBL document CHEMBL3988442, “University of Dundee, Small-Polar-MMV Screening Library” (2021).